The text below walks through data of patent US8541373B2, “BChE albumin fusions for the treatment of cocaine abuse” (priority 2009, dated 2013).

The data set concerns cocaine. Briefly: AlbuBChE PK/PD analysis, sigmoidal inhibitory effect Emax model (cocaine AUC). The following applies: cynomolgus monkeys. An excerpt:
AlbuBChE PK/PD relationship was defined using the computer software WinNonlin Professional (Version 4.0.1 Pharsight Corporation, USA). Specifically the direct sigmoidal inhibitory Effect Emax model was use in which maximum effect (Emax) as measured by cocaine AUC was assumed at AlbuBChE concentration of zero. The model equation can be described as follows: Inhibitory Effect Sigmoid Emax, C=0 at Emax, C=infinity at Eo E=Emax−(Emax−E0)*(C**Gamma/(C**Gamma+EC50**Gamma))
The PD parameter used in the analysis was cocaine AUC. PK parameters used in the model were AlbuBChE plasma concentrations at 2, 48, 96, 120, and 240 hr post-AlbuBChE dose. Due to the fact that AlbuBChE concentration was not measured at 2 hr post-AlbuBChE dose, the concentration at 3 hr postdose was used in the analysis with the assumptions that AlbuBChE concentration at 3 hr post AlbuBChE dose may reflect AlbuBChE conc. at 2 hr post AlbuBChE dose.

For the substance AlbuBChE, the “Gamma (PK/PD model)” value is reported as 0.708. In addition, the “E0 (PK/PD model)” value (cocaine AUC) came out at 1096 ng·min/mL. Also, the “Emax (PK/PD model)” value (cocaine AUC at AlbuBChE concentration of zero) turned out to be 12909 ng·min/mL.
